{"sequences": {"note": "By UniProt entry, the sequences of proteins in these tests, tags left out.", "UniProt P61081": "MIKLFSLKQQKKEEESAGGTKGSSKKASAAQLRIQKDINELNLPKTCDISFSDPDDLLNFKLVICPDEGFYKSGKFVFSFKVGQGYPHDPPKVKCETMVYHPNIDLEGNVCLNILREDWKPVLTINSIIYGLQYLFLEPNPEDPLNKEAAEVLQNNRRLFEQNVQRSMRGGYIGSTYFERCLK", "UniProt O75925": "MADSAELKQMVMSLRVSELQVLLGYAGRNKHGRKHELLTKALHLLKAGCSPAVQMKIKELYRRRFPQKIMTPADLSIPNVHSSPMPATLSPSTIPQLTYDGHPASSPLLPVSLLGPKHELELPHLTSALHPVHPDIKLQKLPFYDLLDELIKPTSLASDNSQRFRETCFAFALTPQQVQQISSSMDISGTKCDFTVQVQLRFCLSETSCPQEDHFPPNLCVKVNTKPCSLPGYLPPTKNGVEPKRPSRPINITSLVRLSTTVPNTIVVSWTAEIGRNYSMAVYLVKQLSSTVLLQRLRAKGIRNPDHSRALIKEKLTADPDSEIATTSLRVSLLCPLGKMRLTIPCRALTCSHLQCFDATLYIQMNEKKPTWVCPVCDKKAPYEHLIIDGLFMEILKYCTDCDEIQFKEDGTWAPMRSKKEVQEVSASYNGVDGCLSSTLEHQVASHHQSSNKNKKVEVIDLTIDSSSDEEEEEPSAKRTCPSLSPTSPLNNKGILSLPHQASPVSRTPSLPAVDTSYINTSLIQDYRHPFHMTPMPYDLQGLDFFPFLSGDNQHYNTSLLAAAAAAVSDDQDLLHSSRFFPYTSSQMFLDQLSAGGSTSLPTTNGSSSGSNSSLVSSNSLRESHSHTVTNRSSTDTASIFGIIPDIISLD"}, "source": "paper doi:10.1101/2021.08.16.456439", "target": "CyPet-Ubc12 (UniProt P61081)", "experiment": "FRET or BRET", "note": "These are yes or no findings as the source states them, for the method shown. Binding seen in cells or lysates may run through a third protein."}
{"substance": "YPet-PIAS1 (from UniProt O75925 1-651) (enzyme)", "values": [{"measurement": "binding", "result": "no binding"}]}
